PubChem BioAssay AID504764 | Drosophila RNAi Screening Center | 2011
Test: 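Knock-downs that raise or lower a Notch target reporter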 (primary screen). System: Drosophila Kc167 cells. Knock-down reagent: long dsRNA against Drosophila genes. Duration: about 5 days (4 days dsRNA, then 24 h after transfection). Treatment: transfection of constitutively active membrane-tethered Notch lacking the extracellular domain, read 24 h later. Measurement: 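Firefly luciferase from an E(spl)m3 reporter with active Notch, plus control-promoter and uninduced reporter wells for normalisation; unnormalised counts, duplicate wells a and b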. Scale: induced reporter light, run 1, well a and induced reporter light, run 1, well b: higher = more light from the Notch target reporter with active Notch; control promoter light, run 1, well a and control promoter light, run 1, well b: higher = more light from the viral control promoter (cell number, transfection, viability); uninduced reporter light, run 1, well a: higher = more light from the Notch target reporter without active Notch. Rule for the call: 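Hit if the duplicate-averaged log2 ratio of induced to control-promoter light gives a plate-wise z beyond ±2, or induced to uninduced beyond ±1.8; weak-control or discordant-duplicate wells dropped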. Meaning of the calls: active = modifier hit (raised or lowered Notch signal); inactive = not a hit.
The deposit covers about 22,000 reagents; shown is an unselected part of those that have a named target and a result. In the full data, 403 (1.9%) are marked active. 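Unnormalised raw counts per well; ratio z-scores behind the hit calls and whether each hit raises or lowers signal are not deposited.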 Entries without a mark were called inactive. Reagent sequences are not shown. The record does not give: the amount of reagent.

gene | amplicon | induced reporter light, run 1, well a | induced reporter light, run 1, well b | control promoter light, run 1, well a | control promoter light, run 1, well b | uninduced reporter light, run 1, well a
phtf | DRSC05023 | 2.53e5 | 2.61e5 | 2.42e5 | 2.71e5 | 16960
Rm62 | DRSC12365 | 81450 | 78950 | 35930 | 37445 | 8445
CG12398 | DRSC19454 | 98340 | 82855 | 1.35e5 | 1.11e5 | 10400
MAN1 | DRSC04342 | 1.77e5 | 1.85e5 | 1.46e5 | 1.80e5 | 14575
Pfrx | DRSC18856 | 1.00e5 | 99630 | 98960 | 1.15e5 | 13885
Pfrx | DRSC19315 | 88710 | 87565 | 1.07e5 | 1.02e5 | 8965
CG34305 | DRSC11995 | 2.03e5 | 2.06e5 | 3.19e5 | 3.08e5 | 17360
CG7137 | DRSC07017 | 80980 | 90785 | 1.46e5 | 1.65e5 | 6320
COX2 (retired record) | DRSC21276 | 1.33e5 | 1.27e5 | 1.02e5 | 1.04e5 | 11285
Hgsnat | DRSC18405 | 2.89e5 | 2.45e5 | 4.37e5 | 3.86e5 | 15825
loaf | DRSC09130 | 1.40e5 | 1.56e5 | 1.24e5 | 1.50e5 | 9380
CngB | DRSC04297 | 1.33e5 | 1.87e5 | 1.13e5 | 1.22e5 | 10465
ms(2)35Ci | DRSC01460 | 63950 | 55115 | 70505 | 50440 | 6420
CG14341 | DRSC00371 | 1.71e5 | 1.86e5 | 1.67e5 | 1.09e5 | 13260
Idgf4 | DRSC18675 | 1.11e5 | 1.15e5 | 2.78e5 | 2.14e5 | 8530
CG12835 (retired record) | DRSC06181 | 1.67e5 | 1.62e5 | 2.36e5 | 2.05e5 | 14945
CG4409 | DRSC06869 | 1.00e5 | 1.06e5 | 1.30e5 | 1.90e5 | 13485
puml | DRSC06793 | 2.00e5 | 1.94e5 | 2.48e5 | 2.69e5 | 17705
Cyp6g2 | DRSC07387 | 96375 | 1.07e5 | 1.30e5 | 1.47e5 | 9855
Gadd45 | DRSC06033 | 1.65e5 | 1.45e5 | 2.00e5 | 2.01e5 | 14675
CG15124 | DRSC06546 | 93170 | 86605 | 98375 | 1.01e5 | 7985
CG5376 | DRSC15782 | 1.76e5 | 1.58e5 | 1.53e5 | 1.71e5 | 13865
CG8468 | DRSC07190 | 98980 | 97995 | 1.23e5 | 1.34e5 | 7205
TwdlC | DRSC14749 | 1.63e5 | 1.43e5 | 2.29e5 | 1.95e5 | 14420
CG10669 | DRSC14261 | 2.07e5 | 1.64e5 | 2.09e5 | 1.89e5 | 13785
CG13160 | DRSC06284 | 1.31e5 | 1.44e5 | 1.79e5 | 1.78e5 | 11825
Gmppa | DRSC07108 | 1.05e5 | 99575 | 1.41e5 | 1.28e5 | 8310
Invadolysin | DRSC15527 | 72575 | 70115 | 71865 | 46830 | 5125
Boh2 | DRSC02777 | 1.12e5 | 1.51e5 | 67735 | 1.07e5 | 17505
CG6184 | DRSC15986 | 1.81e5 | 1.30e5 | 1.79e5 | 2.02e5 | 12940
CG4686 | DRSC15622 | 1.77e5 | 1.65e5 | 1.66e5 | 1.75e5 | 12230

Next part, starting with the last 4 of the part before.
gene | amplicon | induced reporter light, run 1, well a | induced reporter light, run 1, well b | control promoter light, run 1, well a | control promoter light, run 1, well b | uninduced reporter light, run 1, well a
Invadolysin | DRSC15527 | 72575 | 70115 | 71865 | 46830 | 5125
Boh2 | DRSC02777 | 1.12e5 | 1.51e5 | 67735 | 1.07e5 | 17505
CG6184 | DRSC15986 | 1.81e5 | 1.30e5 | 1.79e5 | 2.02e5 | 12940
CG4686 | DRSC15622 | 1.77e5 | 1.65e5 | 1.66e5 | 1.75e5 | 12230
Pxn | DRSC08685 | 1.04e5 | 1.14e5 | 2.22e5 | 2.28e5 | 7520
CG17717 | DRSC18130 | 1.67e5 | 1.43e5 | 2.68e5 | 1.93e5 | 11400
mthl13 | DRSC05238 | 2.85e5 | 2.43e5 | 3.50e5 | 3.47e5 | 22575
GluRIIE | DRSC13431 | 97200 | 1.03e5 | 1.03e5 | 1.20e5 | 10505
Ns1 | DRSC15529 | 1.22e5 | 1.17e5 | 1.40e5 | 1.35e5 | 7450
unc79 | DRSC15746 | 1.50e5 | 1.65e5 | 1.90e5 | 2.14e5 | 13038
ACXA | DRSC00844 | 1.42e5 | 1.36e5 | 1.35e5 | 1.60e5 | 11030
prtp | DRSC19804 | 1.95e5 | 1.70e5 | 2.06e5 | 1.92e5 | 12090
PK2-R2 | DRSC16448 | 2.33e5 | 2.45e5 | 2.64e5 | 2.72e5 | 22215
B52 | DRSC14121 | 1.82e5 | 1.43e5 | 91900 | 97590 | 11195
Sox21b | DRSC10025 | 1.40e5 | 1.37e5 | 73020 | 81355 | 9970
Sox21b | DRSC10634 | 24295 | 13255 | 29520 | 30200 | 4590
CG13215 | DRSC06337 | 1.44e5 | 1.47e5 | 1.54e5 | 1.90e5 | 13590
nonA | DRSC20357 | 56825 | 48055 | 54625 | 53460 | 10220
CG13692 | DRSC00361 | 92670 | 1.08e5 | 1.03e5 | 52110 | 6930
CG9890 | DRSC04590 | 1.71e5 | 1.66e5 | 1.64e5 | 1.60e5 | 12225
Pdp1 | DRSC08896 | 3442 | 3420 | 4600 | 3765 | 4495
Pdp1 | DRSC08897 | 2078 | 1620 | 2430 | 2175 | 2535
Pdp1 | DRSC11251 | 2.24e5 | 2.26e5 | 2.68e5 | 2.02e5 | 8940
